Measured values reported in patent publication US6015877A (President and Fellows of Harvard College, priority 1996, dated 2000).

Experiment: general procedure: solution-phase peptide synthesis; 1-ethyl-3-(3-dimethylaminopropyl)carbodiimide hydrochloride / 1-hydroxybenzotria

Row | Substance | step yield (coupling step) | step yield (late stage modification step)
1 | (3S,4S)-N-Boc-4-amino-3-hydroxy-5-(S-all-trans-farnesyl)-1-(methyl L-Val-L-Ile-L-Met)pentanoic Amide | 70% | –
2 | (4S)-N-Boc-4-amino-2,2-difluoro-3-hydroxy-5-(S-all-trans-farnesyl)-1-(L-Val-L-Ile-L-Met)pentanoic Amide | – | 40%
3 | (4S)-N-Boc-4-amino-2,2-difluoro-3-hydroxy-5-(S-all-trans-farnesyl)-1-(methyl L-Val-L-Ile-L-Met)pentanoic Amide | 19% | –
